The other results are listed elsewhere or left out. The exact form of the protein is not confirmed.
The sequences below were run against T1, ETS1 (UniProt P14921) (assay: DAPPL (digital affinity profiling via proximity ligation, sequencing)). Conditions: 10 mM Tris-HCl pH 7.5, 50 mM NaCl, 1 mM DTT, 4% glycerol, room temperature, 30 min; GST-TFs on glutathione beads, 16-mer random dsDNA library, 0.1% …; high values mean tight binding; double strand, one strand shown; scale: fold enrichment (6-mer frequency, TF over GST control).
T1 sequence: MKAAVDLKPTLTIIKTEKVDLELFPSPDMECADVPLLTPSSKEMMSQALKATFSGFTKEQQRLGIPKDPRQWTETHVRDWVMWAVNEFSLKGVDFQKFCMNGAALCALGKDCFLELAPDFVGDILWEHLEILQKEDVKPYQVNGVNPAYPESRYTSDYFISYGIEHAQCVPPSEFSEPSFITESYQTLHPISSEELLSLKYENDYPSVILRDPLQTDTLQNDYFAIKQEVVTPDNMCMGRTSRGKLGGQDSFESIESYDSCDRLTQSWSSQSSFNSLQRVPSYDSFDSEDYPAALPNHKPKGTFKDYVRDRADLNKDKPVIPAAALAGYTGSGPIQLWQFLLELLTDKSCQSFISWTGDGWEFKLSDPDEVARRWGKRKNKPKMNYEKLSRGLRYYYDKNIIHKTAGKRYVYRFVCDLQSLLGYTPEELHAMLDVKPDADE

Sequence	binding signal
TCCCTT	1.56
CTCTTT	1.42
TTAACC	1.31
GCACTT	1.74
TTACAA	1.17
CGAAAA	1.15
TTTCAG	1.33
CGAGTT	1.11
AACTAA	1.38
ATTATG	1.28
TCACAC	1.36
TATGGT	1.42
TTTGAG	1
CGAATA	1.17
TCGCGC	1.13
ACCTGC	1.53
GCTATT	1.3
CGTAAT	1.21
GTCTTT	1.16
CAATTG	1.26

2 records picked at random from the list so far, as already listed:
Sequence	binding signal
CAATTG	1.26
TCGCGC	1.13

(listing goes on)

Sequence	binding signal
AACATG	1.19
TACCAC	1.23
TACTTC	3.26
CTGTTT	1.33
TAAAAT	1.23
GCGATG	1.16
ATCATC	1.13
TGGTTT	1.54
ATTCGT	1.29
GTCCCT	1.21
AACAAA	1.18
CGTCTA	1.27
TGCAAC	1.34
TTGTCT	1.15
AACGTT	1.08
ATACCC	1.21
TCGAAT	1.11
CTGCTA	1.42
TCCACA	1.27
CAAATA	1.12
